The source of these data is the supplement of paper PMC7024190.

Where a name gives a salt, the structure may show the parent alone. The list shows a part of the results. This data set is noisy: repeats of one test often differ as much as different tests do.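 Human embryonic kidney cells were transiently transfected with a plasmid bearing a Renilla luciferase gene under the HSV-TK promoter. This first-round screen tests roughly ten thousand compounds for ones that increase reporter output.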

This test concerns HEK 293FT. As to the kind of experiment: log relative Renilla luciferase luminescence (reporter expression vs reference, reference not stated) (log (base not stated)); higher = higher recombinant reporter expression. The following applies: 10 µM; time after transfection 48 h.
As to `CC(NCCc1ccc(O)cc1)C(O)c1ccc(O)cc1` (stereo unspecified) [Ritodrine hydrochloride], the log amounted to 0.115.

`CCc1nn(CCCN2CCN(c3cccc(Cl)c3)CC2)c(=O)n1CCOc1ccccc1` [Nefazodone HCl]: the log was determined as 0.0641.

As for `OCCN1CCN(CC/C=C2/c3ccccc3Sc3ccc(Cl)cc32)CC1` [Zuclopenthixol hydrochloride], the log is -0.213.

As for `CN(C)CCOC(=O)C(c1ccccc1)C1(O)CCCC1` (stereo unspecified) [Cyclopentolate hydrochloride], the log came out at 0.0641.

Take `Nc1ccc(/N=N/c2ccccc2)c(N)n1` [Phenazopyridine hydrochloride]: the log is -0.105.

For the compound `CCC(=O)O[C@]1(C(=O)SCF)[C@H](C)C[C@H]2[C@@H]3C[C@H](F)C4=CC(=O)C=C[C@]4(C)[C@@]3(F)[C@@H](O)C[C@@]21C` [Fluticasone propionate], the log was -0.445.

Turning to `O=C(O)c1ccccc1Nc1cccc(C(F)(F)F)c1` [Flufenamic acid], the log was found to be 0.125.

In the case of `CC[N+](C)(CC)CCC[n+]1c(-c2ccccc2)c2cc(N)ccc2c2ccc(N)cc21` [Propidium iodide], the log was -0.00123.

As to `O=C1O[C@H]([C@@H](O)CO)C(O)=C1O` [Ascorbic acid], the log is -0.132.

Consider `Clc1ccc(C(c2ccccc2Cl)C(Cl)Cl)cc1` (stereo unspecified) [Mitotane], for which the log is 0.0967.

For the compound `O=C1Nc2ccc(Cl)cc2[C@@](C#CC2CC2)(C(F)(F)F)O1` [Efavirenz], the log is -0.0919.

Turning to `COC1=CC(=O)C[C@@H](C)[C@]12Oc1c(Cl)c(OC)cc(OC)c1C2=O` [Griseofulvin], the log is -0.0364.

For `CN(C)CCC(c1ccc(Cl)cc1)c1ccccn1` (stereo unspecified) [Chlorpheniramine maleate], the log amounted to 0.0238.

With `COc1cc(N)c(Cl)cc1C(=O)NC1CCN(CCCOc2ccc(F)cc2)CC1OC` (stereo unspecified) [Cisapride], the log is -0.015.

Consider `CN(C)CCCC1(c2ccc(F)cc2)OCc2cc(C#N)ccc21` (stereo unspecified) [Citalopram Hydrobromide], for which the log was 0.0896.

With `CCCC(CCC)C(=O)O` [Valproic acid], the log is -1.09.

Regarding `Cc1onc(-c2ccccc2)c1C(=O)N[C@@H]1C(=O)N2[C@@H]1SC(C)(C)[C@@H]2C(=O)O` [Oxacillin sodium], the log worked out at 0.153.

For the compound `O=C(O)CNC(=O)C(CS)Cc1ccccc1` (stereo unspecified) [Thiorphan], the log was -0.0382.

For `Cc1c(OCC(F)(F)F)ccnc1C[S+]([O-])c1nc2ccccc2[nH]1` (stereo unspecified) [Lansoprazole], the log turned out to be 0.0781.

Turning to `Cn1c(=O)c2c(ncn2C)n(C)c1=O` [Caffeine], the log was 0.06.

For the compound `CC(C)(C)NCC(O)c1ccc(O)c(CO)c1` (stereo unspecified) [Salbutamol], the log turned out to be 0.0612.

For `O=C(O[C@@H]1C[C@@H]2C[C@H]3C[C@H](C1)N2CC3=O)c1c[nH]c2ccccc12` [Dolasetron mesilate], the log is -0.0407.

Turning to `COC(=O)Nc1nc2cc(C(=O)c3ccc(F)cc3)ccc2[nH]1` [Flubendazol], the log is 0.0179.

As to `O=C(NCC1CCCCN1)c1cc(OCC(F)(F)F)ccc1OCC(F)(F)F` (stereo unspecified) [Flecainide acetate], the log is -0.165.

Turning to `CC1CCc2cc(F)cc3c(=O)c(C(=O)O)cn1c23` (stereo unspecified) [Flumequine], the log was 0.154.

Turning to `CCCCOc1ccc(OCCCN2CCOCC2)cc1` [Pramoxine hydrochloride], the log came out at 0.159.

On to `COc1ccccc1OCCNCC(O)COc1cccc2[nH]c3ccccc3c12` (stereo unspecified) [Carvedilol], for which the log was -0.275.

With `COc1cc(N)c(Cl)cc1C(=O)NC1CCN(Cc2ccccc2)CC1` [Clebopride maleate], the log was 0.156.

With `CCN1CCCC1CNC(=O)c1cc(S(=O)(=O)CC)c(N)cc1OC` (stereo unspecified) [Amisulpride], the log is -0.0437.

In the case of `Nc1nc(N)nc(-c2cc(Cl)ccc2Cl)n1` [Irsogladine maleate], the log worked out at 0.111.

Consider `CC(CN1c2ccccc2Sc2ccccc21)N(C)C` (stereo unspecified) [Promethazine hydrochloride], for which the log came to 0.166.

For `NS(=O)(=O)c1cc2c(cc1C(F)(F)F)NC(Cc1ccccc1)NS2(=O)=O` (stereo unspecified) [Bendroflumethiazide], the log was 0.0647.

Consider `O=C(c1ccc(OCCN2CCCCC2)cc1)c1c(-c2ccc(O)cc2)sc2cc(O)ccc12` [Raloxifene hydrochloride], for which the log came to 0.206.

Consider `CCn1cc(C(=O)O)c(=O)c2cc(F)c(N3CCNCC3)cc21` [Norfloxacin], for which the log stood at 0.0655.

`CCOC(=O)C1=C(C)NC(C)=C(C(=O)OC)C1c1cccc([N+](=O)[O-])c1` (stereo unspecified) [Nitrendipine]: the log was found to be 0.127.

Regarding `CC1=C(C(=O)O)N2C(=O)[C@@H](NC(=O)[C@H](N)c3ccc(O)cc3)[C@H]2SC1` [Cefadroxil], the log amounted to 0.0344.

For `C=CCN1CCCC1CNC(=O)c1cc2nn[nH]c2cc1OC` (stereo unspecified) [Alizapride HCl], the log is -0.243.

`CC(C)(Oc1ccc(C2CC2(Cl)Cl)cc1)C(=O)O` (stereo unspecified) [Ciprofibrate]: the log is 0.104.

As to `C=C(NC(=O)C(=C)NC(=O)c1csc(C2=N[C@@H]3c4csc(n4)[C@H]4NC(=O)c5csc(n5)[C@H]([C@](C)(O)[C@@H](C)O)NC(=O)[C@H]5CSC(=N5)/C(=C/C)NC(=O)[C@H]([C@@H](C)O)NC(=O)c5csc(n5)[C@]3(CC2)NC(=O)[C@H](C)NC(=O)C(=C)NC(=O)[C@H](C)NC(=O)[C@H]([C@@H](C)CC)N[C@@H]2C=Cc3c([C@H](C)O)cc(nc3[C@H]2O)C(=O)O[C@@H]4C)n1)C(N)=O` [Thiostrepton], the log was -1.34.

Consider `CC(=C(CCO)SSCC1CCCO1)N(C=O)Cc1cnc(C)nc1N` (stereo in doubt) [Fursultiamine Hydrochloride], for which the log is 0.0713.

In the case of `CCC(C)(CN(C)C)OC(=O)c1ccccc1` (stereo unspecified) [Amyleine hydrochloride], the log came out at 0.104.

Take `NC(=O)c1cccnc1` [Nicotinamide]: the log was -0.0547.

On to `Cn1c(=O)c2c(ncn2CC(O)CO)n(C)c1=O` (stereo unspecified) [Diprophylline], for which the log was 0.104.

On to `CNC1(C)C2CCC(C2)C1(C)C` (stereo unspecified) [Mecamylamine hydrochloride], for which the log amounted to 0.0496.

Turning to `CC[C@]12CCCN3CCc4c(n(c5ccccc45)[C@@](O)(C(=O)OC)C1)[C@@H]32` [Vincamine], the log is -1.15.

`Nc1ccc(S(N)(=O)=O)cc1` [Sulfanilamide]: the log is -0.196.

In the case of `CC(CCc1ccc(O)cc1)NCCc1ccc(O)c(O)c1` (stereo unspecified) [Dobutamine hydrochloride], the log is -0.447.

As to `CCSc1ccc2c(c1)N(CCCN1CCN(C)CC1)c1ccccc1S2` [Thiethylperazine dimalate], the log is -0.0878.

For the compound `CN(C)CCC(c1ccccc1)c1ccccn1` (stereo unspecified) [Pheniramine maleate], the log was 0.126.

Consider `NC[C@H]1CC[C@H](C(=O)O)CC1` [Tranexamic acid], for which the log is 0.0511.

Consider `C=CCc1ccccc1OCC(O)CNC(C)C` (stereo unspecified) [Alprenolol hydrochloride], for which the log came to 0.0503.

On to `CCCCOc1ccc(CC(=O)NO)cc1` [Bufexamac], for which the log is -0.114.

Consider `CC(=O)OC(C)C[N+](C)(C)C` (stereo unspecified) [Methacholine chloride], for which the log is 0.0667.

Regarding `O=C(O)c1cc(=O)c2c(OCC(O)COc3cccc4oc(C(=O)O)cc(=O)c34)cccc2o1` [Cromolyn disodium salt], the log was -0.203.

As to `Clc1ccccc1C(c1ccccc1)(c1ccccc1)n1ccnc1` [Clotrimazole], the log is 0.0713.

For `Clc1ccc(COC(Cn2ccnc2)c2ccc(Cl)cc2Cl)cc1` (stereo unspecified) [Econazole nitrate], the log is 0.0262.

With `C=CC[N@@+]12CC[C@@]34c5ccccc5N5/C=C6/[C@H]7C[C@H]8[C@@]9(CC[N@@+]8(CC=C)C/C7=C/CO)c7ccccc7N(/C=C(/[C@@H](C[C@@H]31)/C(=C\CO)C2)[C@H]54)[C@@H]69` [Alcuronium chloride], the log is 0.02.

On to `CCCC(C(=O)OCCN(CC)CC)(c1ccccc1)c1ccccc1` [Proadifen hydrochloride], for which the log is -0.0145.

As to `CCN(CC)C(=O)N1CCN(C)CC1` [Diethylcarbamazine citrate], the log stood at 0.0619.

For `CCN(CCCc1ccccc1)CCCc1ccccc1` [Alverine citrate salt], the log was -0.00693.

Consider `CNCC[C@@H](Oc1ccccc1C)c1ccccc1` [Tomoxetine hydrochloride], for which the log was -0.0293.

As to `O=C(CCCCC(=O)Nc1c(I)cc(I)c(C(=O)O)c1I)Nc1c(I)cc(I)c(C(=O)O)c1I` [Iodipamide], the log is 0.0914.

In the case of `COCCCOc1ccnc(C[S+]([O-])c2nc3ccccc3[nH]2)c1C` (stereo unspecified) [Rabeprazole Sodium salt], the log was -0.0837.

Consider `O=C(O)Cc1cc(I)c(Oc2ccc(O)c(I)c2)c(I)c1` [Tiratricol, 3,3',5-triiodothyroacetic acid], for which the log was 0.111.

Consider `CCCCOC(=O)c1ccc(O)cc1` [Butylparaben], for which the log worked out at 0.139.

Take `CCCc1nc2c(C)cc(-c3nc4ccccc4n3C)cc2n1Cc1ccc(-c2ccccc2C(=O)O)cc1` [Telmisartan]: the log was -0.0336.

As for `N=C(N)N1CCc2ccccc2C1` [Debrisoquin sulfate], the log was determined as 0.0943.

`CC(=O)/N=c1/sc(S(N)(=O)=O)nn1C` [Methazolamide]: the log was -0.141.

For `CCCCC1C(=O)N(c2ccccc2)N(c2ccccc2)C1=O` [Phenylbutazone], the log was -0.159.

Turning to `O=C(Nc1ccccc1)OCC(CN1CCCCC1)OC(=O)Nc1ccccc1` (stereo unspecified) [Diperodon hydrochloride], the log is 0.0619.

Consider `CCCC(=O)Nc1ccc(OCC(O)CNC(C)C)c(C(C)=O)c1` (stereo unspecified) [Acebutolol hydrochloride], for which the log was determined as 0.121.

Take `CN1[C@@H]2CC[C@H]1C[C@@H](OC(c1ccccc1)c1ccccc1)C2` [Benztropine mesylate]: the log amounted to 0.0732.

`CC(=O)Nc1ccc(OCC(O)CNC(C)C)cc1` (stereo unspecified) [Practolol]: the log is -0.0642.

Consider `CC(=O)OCC(=O)[C@@]12OC3(CCCC3)O[C@@H]1C[C@H]1[C@@H]3CCC4=CC(=O)C=C[C@]4(C)[C@@]3(F)[C@@H](O)C[C@@]12C` [Amcinonide], for which the log was -0.159.

With `N=C(N=C(N)N)N1CCOCC1` [Moroxidine hydrochloride], the log stood at 0.0466.

As to `Cc1cccc(C)c1NC(=O)CN1CCN(CCCC(c2ccc(F)cc2)c2ccc(F)cc2)CC1` [Lidoflazine], the log is -0.293.
